# According to paper PMC6925144, “A prospective compound screening contest identified broader inhibitors for Sirtuin 1” (Scientific Reports, 2019):
# Protein sequences, listed by entry. Tags and fused reporters are not part of them. Residues count along the entry.
# UniProt Q96EB6, 2-747 limits assumed: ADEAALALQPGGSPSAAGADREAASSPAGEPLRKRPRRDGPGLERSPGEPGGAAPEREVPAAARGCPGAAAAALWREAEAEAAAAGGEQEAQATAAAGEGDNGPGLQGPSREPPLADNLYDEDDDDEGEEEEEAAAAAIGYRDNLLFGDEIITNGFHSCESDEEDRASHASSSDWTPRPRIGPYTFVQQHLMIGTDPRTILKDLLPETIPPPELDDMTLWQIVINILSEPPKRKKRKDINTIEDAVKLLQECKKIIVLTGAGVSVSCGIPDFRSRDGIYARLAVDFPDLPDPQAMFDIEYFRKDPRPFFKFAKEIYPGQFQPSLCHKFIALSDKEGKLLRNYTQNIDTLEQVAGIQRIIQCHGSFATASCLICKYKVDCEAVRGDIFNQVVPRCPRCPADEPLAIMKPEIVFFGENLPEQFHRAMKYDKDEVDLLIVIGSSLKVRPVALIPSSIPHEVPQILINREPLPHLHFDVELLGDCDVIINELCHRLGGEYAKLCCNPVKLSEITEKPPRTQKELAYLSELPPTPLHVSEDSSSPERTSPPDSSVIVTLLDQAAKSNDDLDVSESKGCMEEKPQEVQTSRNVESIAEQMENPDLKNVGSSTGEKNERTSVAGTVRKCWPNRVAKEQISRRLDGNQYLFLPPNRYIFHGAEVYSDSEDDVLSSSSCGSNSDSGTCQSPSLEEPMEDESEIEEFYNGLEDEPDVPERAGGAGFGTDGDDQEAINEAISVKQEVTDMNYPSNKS
# Over roughly 3,200 compounds, “TSA(with NAD+) / Primary screening (TSA) / delta Tm (K)” has its median near -0.04; the highest 2% begin near 0.37. The list shows a part of the results.
# Molecular target: NAD-dependent deacetylase Sirtuin 1 (human, UniProt Q96EB6)
# Assay: primary screen, delta tm
# Set-up: single well (n = 1, as 'the same TSA')
# Conditions: 10 µM
# Protocol: A total of 3,192 compounds extracted from the proposed lists were first screened by thermal shift assay (TSA), which determined a melting temperature shift (ΔTm) of Sirtuin 1 upon the addition of a test compound at a concentration of 10 µM (n = 1) with primary hit criteria of ΔTm > 0.45 K or ΔTm < −1.5 K. Primary hits (48 compounds) were retested in the same assay at three concentrations (5, 10, 20 µM, n = 4) for hit confirmation and for dose-dependency check. Secondary hits (41 compounds) were checked their selectivity for Sirtuin 1 based on counterscreening on unrelated protein targets (bovine carbonic anhydrase (CA) and recombinant SH2 domain of hABL1 kinase (ABL1)) at three different concentrations (5, 10, 20 µM, n = 4), which yielded 38 hit compounds, hereafter referred to as TSA hits. The TSA screening above was conducted in the absence of NAD+. As noted, the structure of Sirtuin 1 is different in the presence of NAD+ and substrate. The chemical profile of TSA hits found from the different conditions could be different. […] As a result, 39 TSA hits were found.
row,Compound,TSA(with NAD+) / Primary screening (TSA) / delta Tm (K)
1,CCc1cccc2c(C(=O)N3CCN(C4CCCC4O)CC3)c[nH]c12 (stereo not drawn),-0.28
2,O=C(COC(=O)C12CC3CC(C1)CC(c1ccccc1)(C3)C2)N1CCN(c2ccccc2)CC1,-0.13
3,CCC(C)N(C)CCN (stereo not drawn),-0.03
4,O=C1NC(=S)NC(=O)C1=Cc1ccc(-c2ccccc2)o1,-0.19
5,O=C(O)c1ccc2[nH]c(C(F)F)nc2c1,-0.01
6,O=C(CSc1nnc(CC2CCS(=O)(=O)C2)o1)NC1CCCc2ccccc21 (stereo not drawn),-0.28
7,NC(=O)c1csc(C(=O)NCCc2cc(F)cc3c2OCOC3)c1,-0.03
8,NC(=O)c1ccc(COc2ccc3oc4ccccc4c3c2)cc1,-0.01
9,COc1ccccc1CNC(=O)CN(C)Cc1ccc(SC)cc1,-0.06
10,O=C1NC(=S)N/C1=C/c1ccc(-c2ccc(Cl)cc2)o1,-0.03
11,O=C1NC(=S)NC(=O)C1=CNc1ccc(Br)cc1,-0.02
12,CCOc1cc2c(cc1CNC(=O)NCc1cn(Cc3ccccc3)nc1-c1ccccc1)OC(C)C2 (stereo not drawn),-0.02
13,Cc1c(C(C)C)c(Cl)n2c(nc3ccccc32)c1C#N,-0.08
14,O=C(CN1CCN(C(=O)c2ccc(-c3nc4ccccc4s3)o2)CC1)Nc1cccc(F)c1,-0.13
15,CN(C)Cc1ccc(C(=O)Nc2cccc(C(=O)NC3CC3)c2)cc1,0.01
16,NCC1CCCC1N (stereo not drawn),0.05
17,Cn1c(SCC(N)=O)nc2ccccc21,-0.13
18,Cc1sc2ncnc(N3CCCC(C(N)=O)C3)c2c1C (stereo not drawn),-0.03
19,O=C(NCCC12CC3CC(C1)CC(CCNC(=O)c1ccc(S(=O)(=O)N4CCOCC4)cc1)(C3)C2)c1ccc(S(=O)(=O)N2CCOCC2)cc1,0.01
20,COc1cc(C2C(C(=O)c3ccco3)=C(O)C(=O)N2CCCN2CCOCC2)cc(OC)c1OC (stereo not drawn),0.03
21,CCOc1ccc(C(NC(=O)c2cc(C(N)=O)cn2C)C(C)C)cc1OCC (stereo not drawn),0.05
22,Cc1ccc(-c2sc(-c3ccccc3)nc2CC(=O)Nc2nnc(CC(C)C)s2)cc1,-0.01
23,C=CCOc1ccc(C2C(C(=O)c3ccc(OCC)cc3)=C(O)C(=O)N2CCN2CCOCC2)cc1 (stereo not drawn),-0.08
24,COc1cc2c(N3CCC(c4cc(N)[nH]n4)CC3)ncnc2cc1F,-0.03

row,Compound,TSA(with NAD+) / Primary screening (TSA) / delta Tm (K)
1,O=C(CSc1nncn1-c1ccccc1)Nc1ccccc1[N+](=O)[O-],0.06
2,NC(=O)c1cnc(Nc2ncnc3oc(-c4ccccc4)cc23)s1,-0.05
3,COc1ncnc2c1cnn2-c1ccccc1,-0.33
4,CCn1cc(C(=O)N(C)Cc2ccc(OCc3ccccc3)c(OC)c2)c(=O)c2ccc(C)nc21,-0.08
5,CNC(=O)CNC(=O)CNC(=O)c1cccs1,-0.32
6,NC(=O)c1c(NC(=O)CSc2nnc(N3CCCC3)n2C2CC2)sc2c1CCC2,0.08
7,COCC(CN)OC (stereo not drawn),-0.19
8,COc1ccc(CCN2CC(C(=O)OCC(=O)NC(Cc3ccccc3)C(C)=O)CC2=O)cc1OC (stereo not drawn),-0.13
9,NC(=O)c1cccc(CN2CCCC2c2ccsc2)c1 (stereo not drawn),-0.15
10,CC(Oc1ccc2ccc(=O)oc2c1)C(=O)N1CCc2ccccc21 (stereo not drawn),-0.23
11,NC(=O)C1CCN(C(=O)c2[nH]c3ccc(F)cc3c2Cl)CC1,-0.06
12,O=C(COC(=O)c1ccc(-n2cccc2)cc1)Nc1ccccc1Cc1ccccc1,-0.06
13,CC(C)C(=O)NN,-0.13
14,COc1cccc2c1OCC(Nc1cc(-c3nc(C)no3)ccn1)C2 (stereo not drawn),0.03
15,CN(c1cccc(Cl)c1)S(=O)(=O)c1cccc(C(=O)Nc2cc(C(N)=O)cc(C(N)=O)c2)c1,-0.01
16,CCCN(Cc1ccc(C(N)=O)cc1)Cc1nnc(-c2ccco2)o1,-0.22
17,Cn1c(=O)[nH]c(=O)c2c1nc(N1CCC(C(N)=O)CC1)n2CCSc1nc2ccccc2o1,0.05
18,CCOc1ccc(C2C(C(=O)c3ccc(C)cc3)=C(O)C(=O)N2CCCN2CCOCC2)cc1 (stereo not drawn),-0.01
19,CCOC(=O)c1cnc2ccccc2c1NC1CCN(C(=O)OCC)CC1,-0.18
20,CCS(=O)(=O)N1CCN(c2ccc(C(N)=O)cc2)CC1,-0.11
21,O=C(Nc1cnc2ccccc2c1)C(=O)N1CCC(Oc2ccccc2)CC1,0.06
22,CCCCn1c(N)c(N(CCOC)C(=O)c2cccc(S(=O)(=O)N(C)c3ccccc3)c2)c(=O)[nH]c1=O,-0.06
23,Cc1csc(N2CCN(c3cc(=O)n4ccccc4n3)CC2)n1,-0.01
24,NC(=O)CC1CCN(C(=O)c2ccn(-c3cccc(Cl)c3)n2)CC1,-0.03

row,Compound,TSA(with NAD+) / Primary screening (TSA) / delta Tm (K)
1,CCOc1cccc(/C=C2/Oc3cc(O)ccc3C2=O)c1OC,0.13
2,COc1ccc(-n2c(SCc3ccc([N+](=O)[O-])cc3)nnc2-c2ccccc2OC)cc1,-0.15
3,O=C(CN1CCOCC1)N1CCNCC1,-0.04
4,CN(c1ccccc1)S(=O)(=O)c1cccc(C(=O)NCCc2c[nH]c3ccccc23)c1,0.17
5,CCCCC(CNC(=O)OC(C)(C)C)NC(=O)CCCc1nc2ccccc2c(=O)[nH]1 (stereo not drawn),-0.03
6,c1ccc(OC2CCN(c3ncnc4c3oc3ccccc34)CC2)nc1,-0.11
7,CC(C)C(O)c1ccccc1NC(=O)c1cc2ccccc2n1C (stereo not drawn),0.01
8,CCN(CC(=O)Nc1ccc(NC(C)=O)cc1)C(=O)CCCSc1nc2ccccc2[nH]1,0.09
9,COc1cccc(C(C)NCc2ccc3[nH]c(=O)[nH]c3c2)c1 (stereo not drawn),-0.08
10,CCc1cc(CN2CCc3cc(OC)c(OC)cc3C2)c(C)cc1O,-0.09
11,CC1Cc2ccccc2N1S(N)(=O)=O (stereo not drawn),-0.02
12,O=C(O)CCn1cc(C=C2C(=O)NC(=O)NC2=O)c(-c2ccc(Br)cc2)n1,-0.26
13,O=C(OCC(=O)C12CC3CC(CC(C3)C1)C2)c1ccc(N2C(=O)c3ccccc3C2=O)cc1,0.06
14,CCCNC(=O)Nc1ccc(OC)cc1,-0.08
15,O=C(O)CC(O)(CC(=O)O)C(=O)O,0.09
16,COc1ccccc1C1C(C(=O)/C=C/c2ccco2)=C(O)C(=O)N1CCCN1CCOCC1 (stereo not drawn),-0.18
17,NC(=O)C1CCCN(c2ncnc3cc(-c4ccc(Br)cc4)sc23)C1 (stereo not drawn),-0.11
18,CCCOc1ccc(/C=c2/s/c(=C\C(=O)OCC)n(CC(=O)NCC3CCCO3)c2=O)cc1OCC (stereo not drawn),0.07
19,Cc1nn(Cc2ccccc2)c(Cl)c1/C=C/C(=O)OC(C)C(=O)Nc1ncc(Cl)cc1Cl (stereo not drawn),0.01
20,Cc1ccc2[nH]c3c(c2c1)CC(C)(C)CC3,-0.01
21,CC(O)CCCN (stereo not drawn),-0.11
22,O=C(COC(=O)C1=COCCO1)NCCc1c[nH]c2ccccc12,-0.18
23,O=C(Nc1cccc(C(F)(F)F)c1)c1cccc(NC(=O)c2cc3c(cc2[N+](=O)[O-])OCCO3)c1,0.38
24,CCCNC(=O)CNc1ccccc1OC(F)F,-0.11

# A draw from above in order of molar mass, rising:
row,Compound,TSA(with NAD+) / Primary screening (TSA) / delta Tm (K)
21,CC(O)CCCN (stereo not drawn),-0.11
3,O=C(CN1CCOCC1)N1CCNCC1,-0.04
1,CCOc1cccc(/C=C2/Oc3cc(O)ccc3C2=O)c1OC,0.13
2,COc1ccc(-n2c(SCc3ccc([N+](=O)[O-])cc3)nnc2-c2ccccc2OC)cc1,-0.15
19,Cc1nn(Cc2ccccc2)c(Cl)c1/C=C/C(=O)OC(C)C(=O)Nc1ncc(Cl)cc1Cl (stereo not drawn),0.01

# The list continues.

row,Compound,TSA(with NAD+) / Primary screening (TSA) / delta Tm (K)
1,COc1cc(CN(C)C(=O)Cc2ccc3c(c2)OCCO3)ccc1OCc1ccccc1,-0.14
2,CCCCn1c(N)c(NC)c(=O)[nH]c1=O,-0.05
3,CC(C)Cc1cc(NC(=O)Cc2coc(-c3cccs3)n2)n(C)n1,-0.09
4,CN(C)C(=O)c1ccc2[nH]c3c(c2c1)CCCCC3,-0.03
5,COC(=O)C(C(=O)c1ccccc1)=C1Nc2ccccc2N1,-0.16
6,NC(=O)c1cccc2c1CCCN2C(=O)CCCn1c(=O)oc2ccccc21,-0.21
7,COC(=O)c1ccc(C(=O)NNC(=O)Cc2cn3ccsc3n2)cc1,0.09
8,CN(c1ccccc1)S(=O)(=O)c1cccc(NC(=O)c2cc(Cl)nc3ccccc23)c1,0.16
9,Cc1c(C(=O)O)c(=O)oc2cc(F)ccc12,-0.14
10,O=C(O)CCCCNC(=O)OCc1ccccc1,-0.11
11,Cc1[nH]c2ccccc2c1CC(=O)Nc1cccc(-c2noc(=O)[nH]2)c1,-0.23
12,O=C(Nc1ccccc1)c1ccc(CNC(c2ccccc2)c2ccccc2)cc1,0.15
13,CCNC(=O)C(C)NC(=O)c1cccc(S(=O)(=O)N(C)c2ccc(C)cc2)c1 (stereo not drawn),0.03
14,CCOc1cccc(C2C(C(=O)c3cc4ccccc4o3)=C(O)C(=O)N2CCCN2CCOCC2)c1 (stereo not drawn),0.06
15,O=C(CCl)c1c(-c2ccc(F)cc2)[nH]c2ccccc12,0.12
16,Cn1cc(C2CCN(c3ncnc4ccccc34)CC2)cn1,-0.04
17,COC(=O)CCCNC(=O)c1cc(-c2ccco2)nc2c(C(N)=O)ncn12,-0.02
18,Nn1c(S)nnc1-c1ccccc1F,-0.29
19,CC1CCc2c(sc3ncnc(N4CCN(Cc5csc(-c6ccco6)n5)CC4)c23)C1 (stereo not drawn),-0.06
20,O=C(Cn1cnc2sc3c(c2c1=O)CCC3)N1CCc2ccccc2C1,-0.16
21,Cc1ccccc1C1CN(C(=O)C2CCc3n[n-]nc3C2)CCO1 (stereo not drawn),-0.19
